From PubChem BioAssay AID2528 (National Center for Advancing Translational Sciences (NCATS), 2010)
This list holds what a sample rich in hits left over. Active and inactive are the calls of the source. Calls follow the shape of the dose curve; as a rule, active = well fitted inhibition curve with a large enough effect; inconclusive = small, poorly fitted or top-dose-only effect; inactive = flat fitted curve, though single readings scatter.

Amino acid sequences for entries named in this document (tags omitted). A change or cut given only in a name is not applied to a line headed by its entry.
UniProt P54132: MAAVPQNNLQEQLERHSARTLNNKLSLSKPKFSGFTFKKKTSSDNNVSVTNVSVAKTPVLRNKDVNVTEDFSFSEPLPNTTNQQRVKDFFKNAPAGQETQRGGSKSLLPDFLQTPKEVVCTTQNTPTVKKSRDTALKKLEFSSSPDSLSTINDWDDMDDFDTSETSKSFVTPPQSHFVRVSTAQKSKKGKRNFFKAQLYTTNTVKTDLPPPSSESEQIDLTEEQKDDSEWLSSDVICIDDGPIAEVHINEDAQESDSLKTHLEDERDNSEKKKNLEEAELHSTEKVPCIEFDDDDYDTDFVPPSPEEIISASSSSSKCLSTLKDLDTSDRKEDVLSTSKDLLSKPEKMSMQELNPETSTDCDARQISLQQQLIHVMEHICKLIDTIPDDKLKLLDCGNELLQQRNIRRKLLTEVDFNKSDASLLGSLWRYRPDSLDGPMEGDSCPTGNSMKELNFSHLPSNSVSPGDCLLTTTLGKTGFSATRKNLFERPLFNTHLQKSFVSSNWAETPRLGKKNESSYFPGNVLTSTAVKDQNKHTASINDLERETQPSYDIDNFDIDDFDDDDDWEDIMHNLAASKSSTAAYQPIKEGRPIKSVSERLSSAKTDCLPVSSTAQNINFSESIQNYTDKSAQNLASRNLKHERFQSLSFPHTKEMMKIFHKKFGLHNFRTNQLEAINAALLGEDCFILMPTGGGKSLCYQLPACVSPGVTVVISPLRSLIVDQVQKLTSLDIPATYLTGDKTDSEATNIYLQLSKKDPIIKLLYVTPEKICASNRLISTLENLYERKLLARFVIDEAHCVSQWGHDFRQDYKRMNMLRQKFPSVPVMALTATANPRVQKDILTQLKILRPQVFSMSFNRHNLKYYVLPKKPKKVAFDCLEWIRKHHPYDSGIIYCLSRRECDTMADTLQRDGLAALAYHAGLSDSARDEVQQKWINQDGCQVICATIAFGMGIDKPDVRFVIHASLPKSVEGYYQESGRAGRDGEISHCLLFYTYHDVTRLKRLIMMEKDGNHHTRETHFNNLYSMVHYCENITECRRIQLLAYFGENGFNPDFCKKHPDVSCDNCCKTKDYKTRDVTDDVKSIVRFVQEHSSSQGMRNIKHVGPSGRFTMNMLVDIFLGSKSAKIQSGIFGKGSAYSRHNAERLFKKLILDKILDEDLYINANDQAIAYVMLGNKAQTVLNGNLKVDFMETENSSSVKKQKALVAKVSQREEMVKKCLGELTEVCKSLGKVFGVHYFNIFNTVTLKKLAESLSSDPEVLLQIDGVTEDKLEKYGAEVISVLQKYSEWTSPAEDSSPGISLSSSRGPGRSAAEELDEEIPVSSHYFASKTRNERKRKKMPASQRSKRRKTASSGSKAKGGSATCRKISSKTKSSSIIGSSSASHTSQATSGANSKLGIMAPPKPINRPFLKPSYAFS

Target: RecQ-like DNA helicase BLM (Homo sapiens) (UniProt P54132)
Experiment: qHTS Assay for Inhibitors of Bloom's syndrome helicase (BLM);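 also: plate controls were vehicle for no effect and no enzyme for full effect; nearly all actives have a fitted effect of over 35% in size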
Details: recombinant BLM DNA unwinding, fluorescence dequenching
Text: Survival of cells and the faithful propagation of the genome depend on elaborate mechanisms of detecting and repairing DNA damage. Treatment of advanced cancer relies on radiation therapy or chemotherapy, which kill cancer cells by causing extensive DNA damage. It is often found, that cancer cells develop resistance to therapy through enhanced activity of DNA repair functions; this has led to an increased interest in developing drugs that interfere with DNA repair, which could sensitize cancer cells to conventional therapy.
This validation qHTS assay pertains to human BLM, which is important in resolving abnormal DNA structures formed during replication or homologous recombination. Shutting down the expression of BLM leads to chromosomal instability and higher radiation sensitivity in cultured cells.
The validation assay was a fluorescence quenching based kinetic qHTS for BLM Helicase DNA unwinding. The activity was measured as ATP-dependent separation of a 20-bp DNA duplex extended by 30-nt single-stranded tails (forked duplex). […] Strand separation results in an increase in the fluorescence of TAMRA (excitation 525 nm, emission 598 nm). […]
Three uL of reaction buffer (25 mM Tris-HCl (pH 8.0), 5 mM NaCl, 2 mM MgCl2, 1mM DTT, 0.01% Tween- 20, and 2.5 ug/ml poly(dI-dC), including enzyme (50 nM BLM), were dispensed into a 1536-well Greiner black assay plate via solenoid-valve based nanoliter dispensers. Compounds (23 nl each in columns 5-48) and control (23 nl each in column 2 as dose-response) were transferred via a Kalypsys pintool equipped with a 1536-pin array. The plates were incubated for 15 min at room temperature, and then 1 ul of substrates (200 nM DNA and 2 mM ATP, final concentrations) was added to start the reaction. The plate was transferred into a ViewLux high-throughput CCD imager where the reaction progress was measured in a discontinuous kinetic mode (two reads spaced 2 hours apart, with intermediate room temperature incubation of the covered assay plate) by using standard red-fluorescence optics (excitation filter 525 nm, emission filter 598 nm). […]

| SMILES | activity change, negative = inhibition (at 56.1 µM (top of the series)) | activity change, negative = inhibition (at 21.4 µM (top of the series)) |
| --- | --- | --- |
| CN1C2CCC1CC(OC(=O)C(O)c1ccccc1)C2 (stereo not drawn) | inactive: -11.2% | – |
| CN1[C@@H]2CC[C@H]1CC(OC(=O)[C@@H](O)c1ccccc1)C2 (stereo partly drawn) | inactive: -0.233% | inactive: -2.63% |
